The other results are listed elsewhere or left out.
Molecular target: OsWRKY34 (Oryza sativa, UniProt Q0JBA9 1-250)
Experiment: protein-binding microarray (RPBM); PBS, 2% BSA, 51.3 ng/ul salmon testes DNA, 50 uM zinc acetate, 200 nM TF, 25 C, 1 h; high values mean tight binding
Conditions: protein: recombinant; tags: N-terminal polyhistidine and DsRed monomer fusion (pET32a); label: CyDye5-dUTP incorporated in the synthesized complementary strand; 3' TTTTT single-stranded linker to array surface; dsDNA, one strand shown
Method in brief: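 Binding signal here means per-feature fluorescence intensity in arbitrary units. The values were read on an Axon 4000B scanner after a custom Agilent array, double-stranded by primer extension with Cy5-dUTP, was incubated with 200 nM protein at 25 °C for 1 h in PBS with 2% BSA, salmon testes DNA and 50 µM zinc acetate, then washed. The proteins were transcription factors with an N-terminal polyhistidine tag and DsRed, expressed in E. coli BL21-CodonPlus and purified on Ni–NTA.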

The chains behind the UniProt entries cited, without tags or fusion partners.
UniProt Q0JBA9, entry or part of it: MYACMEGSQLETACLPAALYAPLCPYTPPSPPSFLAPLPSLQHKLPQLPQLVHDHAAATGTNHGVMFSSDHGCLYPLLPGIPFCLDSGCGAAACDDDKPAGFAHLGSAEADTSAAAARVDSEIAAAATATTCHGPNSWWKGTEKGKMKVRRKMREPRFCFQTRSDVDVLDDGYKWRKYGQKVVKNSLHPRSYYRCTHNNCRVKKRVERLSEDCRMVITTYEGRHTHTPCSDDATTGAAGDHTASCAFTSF

Sequence | binding signal
AGGGAGGGGAGGTGAACCAGCAGCCTGAGCAGGAGCGGCGCGGAGTCACCTAGTGCAG | 8170 fluorescence intensity (a.u.)
CATCCCACTGACGCCGCCTTCGCCCGCCGCCTCCTCCGCGCGGAGTCACCTAGTGCAG | 11100 fluorescence intensity (a.u.)
CGGCGCCGCAGGGCTCACTTACTCGCACTTATTCTGTTATCGGAGTCACCTAGTGCAG | 11600 fluorescence intensity (a.u.)
AGATACACTGACTAACCATTTTGGCCATATACCTGCAAGCCGGAGTCACCTAGTGCAG | 9490 fluorescence intensity (a.u.)
TGTGCGCGCGTCACGGTTTCCTTCCACGTCTCGTCGCTTCCGGAGTCACCTAGTGCAG | 9140 fluorescence intensity (a.u.)
CAACGCCGCAGTACTTGCCATACCGGATCCCTACGGCTGCCGGAGTCACCTAGTGCAG | 8290 fluorescence intensity (a.u.)
TCCCACGCTCACACCTGCCACTGCCCCACATCCCCGGGCCCGGAGTCACCTAGTGCAG | 13900 fluorescence intensity (a.u.)
CTGGGTCTTACATCCTTCATACTTCATCTATCCTATAATTCGGAGTCACCTAGTGCAG | 10200 fluorescence intensity (a.u.)
CGTCGAGCACCTTACATCGCCGCTGTCTGCCCCTGTCCTGCGGAGTCACCTAGTGCAG | 9040 fluorescence intensity (a.u.)
TATCATTATCTCCCGCCTGCTAACCATCGTGTACACCATCCGGAGTCACCTAGTGCAG | 9000 fluorescence intensity (a.u.)
TACAGTCGTAGATTTCCGCGTCCAATATTTGACCGTCCTTCGGAGTCACCTAGTGCAG | 8530 fluorescence intensity (a.u.)
TTGTTTGCTCTAGGTGTTCTGTTGTCCGCAGTTTCAGGTGCGGAGTCACCTAGTGCAG | 9020 fluorescence intensity (a.u.)
TCTTCATTTCCGTGTTCAGCAGCTTTGCAATAATTTCTATCGGAGTCACCTAGTGCAG | 11900 fluorescence intensity (a.u.)
TTGGATTTTGAGGAGGGAGGGAGGGAGTAGGGTTTGGTAACGGAGTCACCTAGTGCAG | 10900 fluorescence intensity (a.u.)
GCTCCGCCGTCTTCGCATCCGTCATCTCCGCCACCGATCCCGGAGTCACCTAGTGCAG | 10300 fluorescence intensity (a.u.)
CTAGCTACCTCTCACACGTACGTAAGGTCACACTAGCCACCGGAGTCACCTAGTGCAG | 10900 fluorescence intensity (a.u.)
CTTTCATGGTGATTTGCTCTTCTTGTTTGCATGCATGCACCGGAGTCACCTAGTGCAG | 9390 fluorescence intensity (a.u.)
CTCTCTCTCGATCCCGTCTCGTCTCGTCAGTCTGCACCCGCGGAGTCACCTAGTGCAG | 8840 fluorescence intensity (a.u.)
CCATCCTGTAAAGTCATAACTTCCTAACTCCATATTGTCTCGGAGTCACCTAGTGCAG | 8780 fluorescence intensity (a.u.)
ACTTTTTTAGCATCAAATTCTCATATCTTGACTTTTTTTACGGAGTCACCTAGTGCAG | 9380 fluorescence intensity (a.u.)
TACTTTTTTGTCATACTGCACACTTGAAACACCTAAATATCGGAGTCACCTAGTGCAG | 9940 fluorescence intensity (a.u.)

Laid out differently: entries from further up
Sequence	binding signal
CATCCCACTGACGCCGCCTTCGCCCGCCGCCTCCTCCGCGCGGAGTCACCTAGTGCAG	11100 fluorescence intensity (a.u.)
CGGCGCCGCAGGGCTCACTTACTCGCACTTATTCTGTTATCGGAGTCACCTAGTGCAG	11600 fluorescence intensity (a.u.)
AGATACACTGACTAACCATTTTGGCCATATACCTGCAAGCCGGAGTCACCTAGTGCAG	9490 fluorescence intensity (a.u.)

Carrying on.

Sequence | binding signal
GACCTAATCCGCACCATAATCACATCTCCAGCTCAATCATCGGAGTCACCTAGTGCAG | 8110 fluorescence intensity (a.u.)
TCGCACGCCCACGCCCACGCACTTCCCGCCGCTCGCGGGTCGGAGTCACCTAGTGCAG | 9170 fluorescence intensity (a.u.)
CCCCGATCGCCTAGCTGGTCTCTATAGATAGCACATCCAACGGAGTCACCTAGTGCAG | 9610 fluorescence intensity (a.u.)
TATGATCATCCATTGTGTGCTAGCACAATTCGTATTTCATCGGAGTCACCTAGTGCAG | 9520 fluorescence intensity (a.u.)
ATATATCTCGTTTCGTTCAGTTCGTGTGCCTATAAATACGCGGAGTCACCTAGTGCAG | 8370 fluorescence intensity (a.u.)
ACGTGGTAGTCAAGGTGTGCTTCGTTTACTATTTAACTGCCGGAGTCACCTAGTGCAG | 9950 fluorescence intensity (a.u.)
GGTGTAGGCGGAGGTGGATGGTGGAGGCGGCGCGTGCCGTCGGAGTCACCTAGTGCAG | 8830 fluorescence intensity (a.u.)
GTCAGCTGTCGATTTTTTTTCTTCTCAGCAATGAGGTTTTCGGAGTCACCTAGTGCAG | 9470 fluorescence intensity (a.u.)
TGATCTGCATCTGGGTTTTCTCCTCTCATCTCACCTCTCTCGGAGTCACCTAGTGCAG | 9000 fluorescence intensity (a.u.)
CTCGCGTGTCGTTCCCTATAGGAAAACCCTCTTTATCAATCGGAGTCACCTAGTGCAG | 8570 fluorescence intensity (a.u.)
TTTTTTTTTTTTGTTTTCCCCTTCCGGTCGTTGTGGCGAACGGAGTCACCTAGTGCAG | 8870 fluorescence intensity (a.u.)
TCAGATCTAGAAGCTCATCGTTGCTATTGTCCTGCTTCTCCGGAGTCACCTAGTGCAG | 9670 fluorescence intensity (a.u.)
GCGCCCTTTTTTCCGTCTCATTTAACCCCACACCAACTGTCGGAGTCACCTAGTGCAG | 9730 fluorescence intensity (a.u.)
AGTCTGTAACCTTGTATGTTTGAACATGGTCAAACGATGACGGAGTCACCTAGTGCAG | 12400 fluorescence intensity (a.u.)
TCCCAATCCCTGATTCTACTCTCTTGATTGTATCCTTAGGCGGAGTCACCTAGTGCAG | 8790 fluorescence intensity (a.u.)
ATCTTCTTTTTTTTTCCCGTTATCAGACTAGAGGCAAATACGGAGTCACCTAGTGCAG | 10100 fluorescence intensity (a.u.)
TCTAGCCCTTGTATTCCTCCATCTTCCACCCCAAAACCTTCGGAGTCACCTAGTGCAG | 9260 fluorescence intensity (a.u.)
TTTTTCTTGCTGATCGAACATTCCCTTTTGTTTTCTATTACGGAGTCACCTAGTGCAG | 11300 fluorescence intensity (a.u.)
TCACCGACACTCCATCCTCTTCTTCACAGGCACTCAATGCCGGAGTCACCTAGTGCAG | 9600 fluorescence intensity (a.u.)
TATGCTGAAATCTCTAATTCCGCTCTTTCAATCTGTTGCACGGAGTCACCTAGTGCAG | 8140 fluorescence intensity (a.u.)
TAGGGTTTATGTGCGTGTGTTCATAGGGGTGAGTGCGCGTCGGAGTCACCTAGTGCAG | 8950 fluorescence intensity (a.u.)

Reference: paper PMC7819943, “Rice protein-binding microarrays: a tool to detect cis-acting elements near promoter regions in rice”
